These are literature values, as cited in US20080255115A1, “THIAZOLIDINEDIONE DERIVATIVES AS PI3 KINASE INHIBITORS” (priority 2007, published 2008).

The chains behind the UniProt entries cited, without tags or fusion partners.
UniProt P68400, whole entry: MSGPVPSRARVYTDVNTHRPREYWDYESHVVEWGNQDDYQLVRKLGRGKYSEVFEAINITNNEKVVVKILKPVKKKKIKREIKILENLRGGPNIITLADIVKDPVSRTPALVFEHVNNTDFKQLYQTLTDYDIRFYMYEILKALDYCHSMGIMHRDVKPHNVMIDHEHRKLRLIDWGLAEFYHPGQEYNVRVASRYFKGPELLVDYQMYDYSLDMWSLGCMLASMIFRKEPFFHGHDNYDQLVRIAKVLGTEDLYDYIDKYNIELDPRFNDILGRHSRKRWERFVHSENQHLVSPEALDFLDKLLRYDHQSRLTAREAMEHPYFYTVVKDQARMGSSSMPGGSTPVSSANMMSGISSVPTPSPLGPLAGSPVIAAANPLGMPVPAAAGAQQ

The term IC50 denotes the concentration that inhibits the measured activity by half.

One series has as its system Class I PI3-kinases. As to conditions: LY294002, Fruman et al. 1998; read-out: IC50 against each of these PI3-kinases (Class I); cited from earlier work.
A further series addresses CK2 protein kinase (Homo sapiens, UniProt P68400). As to conditions: LY294002, background section; cited from earlier work.

`O=c1cc(N2CCOCC2)oc2c(-c3ccccc3)cccc12` [LY294002]: the values for the concentration for half-maximal inhibition (IC50) in the series with Class I PI3-kinases and at CK2 protein kinase were 15 to 20 µM and 5 to 10 µM, respectively.
